The list shows a part of the results.
Compound: C1CN(CCC1(CC2=CC=C(C=C2)Cl)N)C3=NC=NC4=C3C=CN4
Test: log2 fold change, soluble protein after heating vs DMSO (PISA); higher = thermal stabilisation; K562 lysate, 10 uM; active = over 0.2 and 3.5 SD of the protein, either way, in both replicates (recomputed)
How it was run: (§1)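 The values are log-two fold changes in thermal stability compared with solvent controls and come from duplicates. They were obtained by TMTpro 16plex LC-MS/MS, with channel sums equalised, on the supernatant after 21,000xg for 90 min. That supernatant came from crude K562 extract at 1 mg/mL protein treated with 10 μM compound for 30 min, heated for 3 min across 48°C-58°C, pooled and brought to 0.5% NP-40 at 4°C.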

Sequences of proteins named here, by UniProt entry; tags and fusion partners are left off. A change or cut given only in a name is not applied to a line headed by its entry.
UniProt P46939: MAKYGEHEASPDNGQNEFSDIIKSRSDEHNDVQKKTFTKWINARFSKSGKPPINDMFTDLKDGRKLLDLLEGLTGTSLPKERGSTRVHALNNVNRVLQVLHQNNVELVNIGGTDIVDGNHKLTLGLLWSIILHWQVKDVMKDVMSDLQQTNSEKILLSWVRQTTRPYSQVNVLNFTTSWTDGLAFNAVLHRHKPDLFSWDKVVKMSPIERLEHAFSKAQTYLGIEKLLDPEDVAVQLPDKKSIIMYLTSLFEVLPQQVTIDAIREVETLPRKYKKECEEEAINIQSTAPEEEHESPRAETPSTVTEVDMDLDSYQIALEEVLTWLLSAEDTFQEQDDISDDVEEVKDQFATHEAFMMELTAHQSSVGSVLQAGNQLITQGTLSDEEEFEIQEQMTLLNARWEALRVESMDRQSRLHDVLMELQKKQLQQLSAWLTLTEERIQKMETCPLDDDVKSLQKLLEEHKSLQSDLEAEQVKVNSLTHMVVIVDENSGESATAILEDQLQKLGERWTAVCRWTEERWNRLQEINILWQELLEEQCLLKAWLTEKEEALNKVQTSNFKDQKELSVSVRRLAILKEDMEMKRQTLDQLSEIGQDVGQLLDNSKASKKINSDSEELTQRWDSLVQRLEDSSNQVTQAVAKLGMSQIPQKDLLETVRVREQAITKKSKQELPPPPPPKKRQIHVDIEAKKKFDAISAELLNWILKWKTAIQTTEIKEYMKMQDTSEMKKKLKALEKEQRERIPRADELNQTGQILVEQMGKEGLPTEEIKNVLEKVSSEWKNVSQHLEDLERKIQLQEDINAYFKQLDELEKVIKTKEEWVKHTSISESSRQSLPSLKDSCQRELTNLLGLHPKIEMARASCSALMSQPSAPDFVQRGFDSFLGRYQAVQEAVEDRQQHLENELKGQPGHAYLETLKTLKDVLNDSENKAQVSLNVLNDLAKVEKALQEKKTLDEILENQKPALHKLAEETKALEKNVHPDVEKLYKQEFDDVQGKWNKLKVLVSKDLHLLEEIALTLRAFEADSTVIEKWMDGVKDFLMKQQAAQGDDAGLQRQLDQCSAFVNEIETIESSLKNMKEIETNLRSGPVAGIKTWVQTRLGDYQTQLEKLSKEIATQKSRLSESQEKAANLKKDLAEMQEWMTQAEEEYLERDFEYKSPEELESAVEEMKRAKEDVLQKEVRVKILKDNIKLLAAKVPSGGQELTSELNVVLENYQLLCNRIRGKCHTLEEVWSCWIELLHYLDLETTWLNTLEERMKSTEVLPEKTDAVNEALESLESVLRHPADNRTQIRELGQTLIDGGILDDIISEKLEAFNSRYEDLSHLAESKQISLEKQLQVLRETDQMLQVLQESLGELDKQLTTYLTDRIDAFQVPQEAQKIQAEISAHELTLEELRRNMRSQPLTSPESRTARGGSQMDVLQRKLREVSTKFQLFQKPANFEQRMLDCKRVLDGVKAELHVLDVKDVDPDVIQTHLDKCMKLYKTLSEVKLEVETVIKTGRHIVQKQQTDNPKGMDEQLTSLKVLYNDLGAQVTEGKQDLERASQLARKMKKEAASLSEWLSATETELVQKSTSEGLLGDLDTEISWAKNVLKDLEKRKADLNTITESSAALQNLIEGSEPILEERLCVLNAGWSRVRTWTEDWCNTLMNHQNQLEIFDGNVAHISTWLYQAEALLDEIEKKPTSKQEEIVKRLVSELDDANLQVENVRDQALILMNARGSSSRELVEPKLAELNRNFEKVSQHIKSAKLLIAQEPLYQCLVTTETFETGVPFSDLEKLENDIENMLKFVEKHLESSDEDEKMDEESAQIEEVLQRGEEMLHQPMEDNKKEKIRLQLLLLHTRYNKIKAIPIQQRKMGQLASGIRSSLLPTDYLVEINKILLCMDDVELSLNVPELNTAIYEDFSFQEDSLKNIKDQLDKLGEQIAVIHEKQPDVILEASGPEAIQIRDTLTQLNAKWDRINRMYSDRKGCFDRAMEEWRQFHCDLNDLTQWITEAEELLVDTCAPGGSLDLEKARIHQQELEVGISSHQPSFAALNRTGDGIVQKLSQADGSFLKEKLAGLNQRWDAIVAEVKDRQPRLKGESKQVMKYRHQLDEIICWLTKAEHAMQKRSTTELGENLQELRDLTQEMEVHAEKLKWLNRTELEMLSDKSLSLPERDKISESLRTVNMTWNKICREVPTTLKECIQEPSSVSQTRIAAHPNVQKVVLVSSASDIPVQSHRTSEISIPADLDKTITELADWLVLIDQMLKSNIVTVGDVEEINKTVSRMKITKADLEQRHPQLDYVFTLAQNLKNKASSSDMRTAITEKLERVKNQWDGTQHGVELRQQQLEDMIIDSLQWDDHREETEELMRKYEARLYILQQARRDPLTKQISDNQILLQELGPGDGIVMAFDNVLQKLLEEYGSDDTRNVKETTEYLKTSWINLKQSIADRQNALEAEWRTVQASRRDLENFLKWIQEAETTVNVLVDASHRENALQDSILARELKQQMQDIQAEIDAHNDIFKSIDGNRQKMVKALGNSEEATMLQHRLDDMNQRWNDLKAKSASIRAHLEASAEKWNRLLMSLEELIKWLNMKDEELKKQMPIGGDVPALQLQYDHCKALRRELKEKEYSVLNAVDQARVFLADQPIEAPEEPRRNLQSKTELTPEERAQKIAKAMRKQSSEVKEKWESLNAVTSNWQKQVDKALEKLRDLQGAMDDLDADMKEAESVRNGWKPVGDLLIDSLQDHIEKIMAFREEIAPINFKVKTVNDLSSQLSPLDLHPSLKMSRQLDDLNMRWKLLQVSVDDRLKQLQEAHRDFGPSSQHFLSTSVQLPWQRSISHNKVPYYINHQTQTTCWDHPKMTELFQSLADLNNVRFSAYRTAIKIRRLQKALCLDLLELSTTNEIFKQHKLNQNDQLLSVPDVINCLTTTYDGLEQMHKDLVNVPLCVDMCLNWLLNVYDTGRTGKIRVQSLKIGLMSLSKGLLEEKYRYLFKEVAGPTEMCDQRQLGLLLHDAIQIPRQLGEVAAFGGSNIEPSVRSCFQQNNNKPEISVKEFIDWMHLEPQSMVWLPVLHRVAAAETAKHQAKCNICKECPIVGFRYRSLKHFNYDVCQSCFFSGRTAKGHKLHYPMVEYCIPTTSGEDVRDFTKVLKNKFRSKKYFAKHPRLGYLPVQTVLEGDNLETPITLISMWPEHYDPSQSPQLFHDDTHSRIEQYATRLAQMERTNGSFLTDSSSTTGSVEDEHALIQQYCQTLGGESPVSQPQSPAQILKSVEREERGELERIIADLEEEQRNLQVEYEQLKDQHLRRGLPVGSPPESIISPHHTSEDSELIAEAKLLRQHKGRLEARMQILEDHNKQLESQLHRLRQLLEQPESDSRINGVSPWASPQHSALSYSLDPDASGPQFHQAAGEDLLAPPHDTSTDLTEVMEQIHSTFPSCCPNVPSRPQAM
UniProt Q9UDW1: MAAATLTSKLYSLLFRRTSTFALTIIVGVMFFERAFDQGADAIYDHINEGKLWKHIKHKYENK
UniProt O15240: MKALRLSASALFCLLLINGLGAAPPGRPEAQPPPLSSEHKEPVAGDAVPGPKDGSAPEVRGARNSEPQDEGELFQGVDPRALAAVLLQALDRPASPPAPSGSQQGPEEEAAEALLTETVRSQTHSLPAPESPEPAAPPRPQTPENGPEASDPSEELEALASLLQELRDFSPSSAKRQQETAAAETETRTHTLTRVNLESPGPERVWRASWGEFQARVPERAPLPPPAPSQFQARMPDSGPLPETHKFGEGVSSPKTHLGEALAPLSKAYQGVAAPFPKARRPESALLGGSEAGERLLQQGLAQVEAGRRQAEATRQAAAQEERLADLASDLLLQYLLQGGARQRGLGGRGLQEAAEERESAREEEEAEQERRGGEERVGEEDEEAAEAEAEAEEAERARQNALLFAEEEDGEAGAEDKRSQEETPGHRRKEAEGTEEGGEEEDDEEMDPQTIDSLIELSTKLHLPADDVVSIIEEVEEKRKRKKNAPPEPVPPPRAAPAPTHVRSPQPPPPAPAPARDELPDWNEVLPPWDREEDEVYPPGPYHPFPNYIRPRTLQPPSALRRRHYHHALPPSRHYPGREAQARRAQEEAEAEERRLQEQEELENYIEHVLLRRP
UniProt O75385: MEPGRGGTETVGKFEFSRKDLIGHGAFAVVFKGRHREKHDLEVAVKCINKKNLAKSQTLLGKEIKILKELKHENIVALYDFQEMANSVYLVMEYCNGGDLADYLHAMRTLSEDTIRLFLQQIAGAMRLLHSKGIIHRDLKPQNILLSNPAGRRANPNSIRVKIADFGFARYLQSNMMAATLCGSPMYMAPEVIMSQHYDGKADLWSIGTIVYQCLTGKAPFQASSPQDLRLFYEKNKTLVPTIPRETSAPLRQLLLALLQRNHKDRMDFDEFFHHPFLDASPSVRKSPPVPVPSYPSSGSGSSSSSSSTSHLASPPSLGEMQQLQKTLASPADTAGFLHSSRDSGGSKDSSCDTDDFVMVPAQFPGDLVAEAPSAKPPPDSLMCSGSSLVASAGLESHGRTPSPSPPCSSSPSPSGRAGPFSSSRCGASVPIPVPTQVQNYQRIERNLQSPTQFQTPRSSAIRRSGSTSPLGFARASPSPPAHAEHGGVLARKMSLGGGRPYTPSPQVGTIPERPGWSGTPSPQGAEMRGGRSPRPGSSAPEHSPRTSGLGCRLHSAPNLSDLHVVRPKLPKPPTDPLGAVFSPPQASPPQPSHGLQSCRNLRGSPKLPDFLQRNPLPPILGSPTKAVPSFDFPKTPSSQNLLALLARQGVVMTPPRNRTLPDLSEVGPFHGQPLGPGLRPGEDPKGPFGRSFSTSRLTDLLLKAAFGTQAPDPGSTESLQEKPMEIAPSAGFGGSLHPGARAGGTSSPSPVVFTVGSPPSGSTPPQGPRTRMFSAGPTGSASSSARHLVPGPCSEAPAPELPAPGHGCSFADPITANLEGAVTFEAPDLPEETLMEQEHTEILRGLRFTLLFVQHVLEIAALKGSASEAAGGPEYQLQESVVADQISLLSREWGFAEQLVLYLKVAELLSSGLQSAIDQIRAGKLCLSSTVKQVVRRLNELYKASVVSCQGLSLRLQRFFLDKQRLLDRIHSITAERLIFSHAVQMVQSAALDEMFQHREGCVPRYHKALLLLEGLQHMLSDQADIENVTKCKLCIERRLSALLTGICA
UniProt A6NNY8: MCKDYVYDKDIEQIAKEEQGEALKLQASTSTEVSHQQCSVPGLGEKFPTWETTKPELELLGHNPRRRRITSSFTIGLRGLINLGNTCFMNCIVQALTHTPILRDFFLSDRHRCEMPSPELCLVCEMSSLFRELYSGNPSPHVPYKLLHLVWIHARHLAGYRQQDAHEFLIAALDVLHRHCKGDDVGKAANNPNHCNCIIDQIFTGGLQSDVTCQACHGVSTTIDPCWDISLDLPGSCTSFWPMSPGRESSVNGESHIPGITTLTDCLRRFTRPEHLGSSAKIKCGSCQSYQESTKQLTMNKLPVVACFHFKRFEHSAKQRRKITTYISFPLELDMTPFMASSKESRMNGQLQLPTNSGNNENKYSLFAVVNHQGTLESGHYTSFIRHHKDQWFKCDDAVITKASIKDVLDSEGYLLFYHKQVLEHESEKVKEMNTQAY
UniProt Q70CQ3: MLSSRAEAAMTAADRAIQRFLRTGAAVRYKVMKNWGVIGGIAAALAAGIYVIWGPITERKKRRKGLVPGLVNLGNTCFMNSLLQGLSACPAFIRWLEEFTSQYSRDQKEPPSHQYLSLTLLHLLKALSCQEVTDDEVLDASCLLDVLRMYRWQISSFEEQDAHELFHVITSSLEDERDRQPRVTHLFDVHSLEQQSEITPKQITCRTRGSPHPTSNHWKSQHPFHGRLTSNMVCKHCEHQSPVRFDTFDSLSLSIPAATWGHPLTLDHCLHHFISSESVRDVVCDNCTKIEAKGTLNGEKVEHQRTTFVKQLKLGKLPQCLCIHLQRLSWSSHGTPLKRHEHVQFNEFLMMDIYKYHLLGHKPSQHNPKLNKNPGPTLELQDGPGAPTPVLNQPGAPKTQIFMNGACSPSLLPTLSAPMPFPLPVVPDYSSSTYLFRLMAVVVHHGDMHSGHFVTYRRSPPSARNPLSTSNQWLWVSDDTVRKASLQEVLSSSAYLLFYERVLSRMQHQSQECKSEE
UniProt C9J7I0: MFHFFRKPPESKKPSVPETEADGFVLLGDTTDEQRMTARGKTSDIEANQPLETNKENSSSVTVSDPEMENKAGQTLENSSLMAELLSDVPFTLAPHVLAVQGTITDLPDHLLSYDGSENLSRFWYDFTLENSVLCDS
UniProt Q14135: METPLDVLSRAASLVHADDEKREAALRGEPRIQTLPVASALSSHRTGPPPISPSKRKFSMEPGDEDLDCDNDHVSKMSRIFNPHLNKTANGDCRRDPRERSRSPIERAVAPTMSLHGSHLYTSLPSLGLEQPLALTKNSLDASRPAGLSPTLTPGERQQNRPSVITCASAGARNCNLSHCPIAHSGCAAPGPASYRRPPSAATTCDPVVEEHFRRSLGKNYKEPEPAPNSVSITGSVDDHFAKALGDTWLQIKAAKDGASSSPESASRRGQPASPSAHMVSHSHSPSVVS

log2 fold change, inactive:
UPF3A (UniProt Q9H1J1) 0.044, USP37 (UniProt Q86T82) -0.199, UTRN isoform 2 (UniProt P46939) 0.171, USP12 (UniProt O75317) 0.027, UROD (UniProt H0Y5R6) 0.11, USP38 (UniProt Q8NB14) -0.068, USP6NL isoform 2 (UniProt Q92738) -0.124, USF3 (UniProt Q68DE3) -0.222, UQCR10 (UniProt Q9UDW1) 0.026, URB1 (UniProt O60287) -0.06, USP36 (UniProt Q9P275) -0.197, URI1 isoform 4 (UniProt O94763) -0.055, UTP11 (UniProt Q9Y3A2) -0.118, URB2 (UniProt Q14146) -0.022, USP20 (UniProt Q9Y2K6) 0.045, VCX3B (UniProt Q9H321) -0.058, VGF (UniProt O15240) -0.044, VASN (UniProt Q6EMK4) -0.01, ULK1 (UniProt O75385) -0.109, USP42 (UniProt Q9H9J4) -0.141, UNKL (UniProt E9PDK2) 0.156, UNG (UniProt P13051) 0.04

Compound: C1COCCN1CCN2C3=CC=CC=C3N=C2NC(=O)C4=CC(=CC=C4)[N+](=O)[O-] [IRAK-1-4 Inhibitor I]
Test: as above
How it was run: as §1

log2 fold change, inactive:
UPF3A (UniProt Q9H1J1) -0.09, USP40 isoform 3 (UniProt Q9NVE5) -0.051, VANGL2 (UniProt Q9ULK5) 0.114, USP12 (UniProt O75317) -0.162, UCP2 (UniProt P55851) -0.026, UROD (UniProt H0Y5R6) -0.092, USP38 (UniProt Q8NB14) -0.031, UNC119 (UniProt Q13432) 0.077, UTP23 (UniProt Q9BRU9) 0.053, USP33 (UniProt Q8TEY7) 0.016, UQCR10 (UniProt Q9UDW1) -0.033, URB1 (UniProt O60287) -0.043, USP27X (UniProt A6NNY8) 0.028, USP30 (UniProt Q70CQ3) -0.172, USP36 (UniProt Q9P275) -0.024, URI1 isoform 4 (UniProt O94763) 0.069, URGCP (UniProt Q8TCY9) 0.022, URB2 (UniProt Q14146) -0.002, USP20 (UniProt Q9Y2K6) -0.012, VCX3B (UniProt Q9H321) -0.024, UMAD1 (UniProt C9J7I0) -0.023, VASN (UniProt Q6EMK4) 0.222, ULK1 (UniProt O75385) -0.093, UNG (UniProt P13051) 0.005, VGLL4 isoform 4 (UniProt Q14135) -0.048

From the supplement of paper PMC10849652
